Data as given in PubChem BioAssay AID1460 (National Center for Advancing Translational Sciences (NCATS), 2008).
The whole screen tested about 270,000 compounds, of which about 5,800 (2.1%) were called active. The source calls these results inconclusive, neither active nor inactive. Calls come from the whole dose curve; as a rule, active = well fitted inhibition curve with a large enough effect; inconclusive = small, poorly fitted or top-dose-only effect; inactive = flat fitted curve, though single readings scatter. Some salts and complexes are drawn in separate pieces, as the source files them; their charges need not balance.

The chains behind the UniProt entries cited, without tags or fusion partners. Residues count along the entry.
UniProt P10636, 561-689 P618L limits assumed: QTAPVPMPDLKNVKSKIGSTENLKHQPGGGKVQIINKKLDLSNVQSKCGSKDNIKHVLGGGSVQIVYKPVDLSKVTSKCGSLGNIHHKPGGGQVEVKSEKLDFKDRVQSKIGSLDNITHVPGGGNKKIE

Target: Microtubule-associated protein tau (Homo sapiens) (UniProt P10636)
Assay: qHTS for Inhibitors of Tau Fibril Formation, Thioflavin T Binding; note: nearly all actives have a fitted effect of over 55% in size
Settings: recombinant tau K18 P301L (four-repeat tau fragment), heparin-induced fibrillization, ThT fluorescence
Potency is the fitted concentration of half-maximal effect.

Structure (SMILES) | Potency
Cc1ccc(OCC(C)C)c(CN(CCCl)CCCl)c1 | inconclusive: 22.4 µM
CCOc1ccc(C)cc1CN(CCCl)CCCl | inconclusive: 25.1 µM
COc1ccc2c(c1O)-c1c(O)c(OC)cc3c1[C@H](C2)[N+](C)(C)CC3.O=[N+]([O-])c1cc([N+](=O)[O-])c([O-])c([N+](=O)[O-])c1[O-] | inconclusive: 17.8 µM
O=C(O)c1cccc(Nc2c([N+](=O)[O-])cc([N+](=O)[O-])cc2[N+](=O)[O-])c1 | inconclusive: 28.2 µM
CCCOc1ccc(C)cc1CN(CCCl)CCCl | inconclusive: 4.47 µM
